{"source": "patent US20140127228A1", "about": "(INDIANA UNIVERSITY SCHOOL OF MEDICINE, priority 2012, published 2014)", "tested_on": "EDL muscle of mice with PC-3 prostate cancer bone metastases", "experiment": "EDL muscle specific force production in mice with PC-3 prostate cancer bone metastases", "assay_type": "in vivo, mouse", "conditions": "hypogonadal mice with PC-3 prostate cancer metastatic to bone", "excerpt": "In embodiment A is shown that body weight is decreased in nude mice inoculated with PC-3 human prostate cancer cells and that osteolytic lesions are present in the tibia and histology of the femur, as shown in X-ray images. In embodiments B and C are shown decreased skeletal muscle cross-sectional area in tumor-bearing mice determined by Micro-CT as described herein. In embodiments D and E are shown decreased body weight (D) and decreased Grip strength (E) in PC-3 tumor bearing mice. […] In embodiment J is shown that RyR1 is oxidized and there is decreased calstabin 1 in the RyR complex from, skeletal muscle (EDL) from mice with metastatic prostate cancer. […] All immunoblots were developed and quantified with the Odyssey system (LI-COR, Inc., Lincoln, Nebr.) using IR labeled anti-mouse and anti-Rabbit IgG (1:10,000 dilution) secondary antibodies. […] Quantification of immunoblots showing the relative nitrotyrosine/SERCA for each group of EDLs tested. *p<0.01 compared to non-cancer controls as analyzed by ANOVA. […]\nExtensor digitorum longus (EDL) muscles are dissected from the hind limbs using micro dissection scissors and forceps. […] To quantify the specific force, the absolute force is normalized to the muscle cross-sectional area, calculated as the muscle weight divided by the length and a muscle density constant of […] as previously described (Yamada et al., 2009).", "note": "For at least one compound, name, drawing or mass did not settle the structure."}
{"smiles": "O=P(O)(O)C(O)(Cn1ccnc1)P(=O)(O)O", "note": "[zoledronic acid]", "values": [{"measurement": "muscle (EDL) specific force production", "result": "increased"}]}
